In publication PMC6925144, “A prospective compound screening contest identified broader inhibitors for Sirtuin 1” (Scientific Reports, 2019):
Whole data set: some 3,200 compounds, median “TSA(without NAD+) / Primary screening (TSA) / delta Tm (K)” near -0.07, cut for the highest 2% near 0.37. Some of the results follow.

The chains behind the UniProt entries cited, without tags or fusion partners. Residues count along the entry.
UniProt Q96EB6, 2-747 limits assumed: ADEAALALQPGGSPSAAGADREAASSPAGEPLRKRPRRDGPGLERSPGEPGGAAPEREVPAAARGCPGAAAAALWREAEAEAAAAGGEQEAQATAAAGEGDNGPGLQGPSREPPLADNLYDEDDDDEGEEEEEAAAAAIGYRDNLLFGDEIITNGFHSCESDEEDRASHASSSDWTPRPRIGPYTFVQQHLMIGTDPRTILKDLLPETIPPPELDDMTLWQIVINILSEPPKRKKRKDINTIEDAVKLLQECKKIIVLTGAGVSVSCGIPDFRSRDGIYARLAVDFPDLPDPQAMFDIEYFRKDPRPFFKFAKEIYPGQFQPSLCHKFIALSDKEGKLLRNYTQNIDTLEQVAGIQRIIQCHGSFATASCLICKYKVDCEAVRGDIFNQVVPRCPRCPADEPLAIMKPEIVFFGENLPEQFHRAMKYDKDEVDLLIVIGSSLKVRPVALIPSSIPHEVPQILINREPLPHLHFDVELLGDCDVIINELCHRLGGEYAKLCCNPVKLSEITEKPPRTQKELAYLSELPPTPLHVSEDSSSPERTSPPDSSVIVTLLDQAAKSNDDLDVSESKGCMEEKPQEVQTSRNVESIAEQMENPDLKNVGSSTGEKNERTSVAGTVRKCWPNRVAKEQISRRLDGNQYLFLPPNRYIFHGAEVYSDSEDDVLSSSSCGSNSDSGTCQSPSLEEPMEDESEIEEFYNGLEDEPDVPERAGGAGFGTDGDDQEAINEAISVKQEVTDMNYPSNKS

target: NAD-dependent deacetylase Sirtuin 1 (human, UniProt Q96EB6); test: primary screen, delta tm; design: single well (n = 1); details: 10 µM
How it was run: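 Thermal shift of Sirtuin 1 measured without NAD+, compound at 10 µM (n = 1); value is ΔTm, with hits defined as ΔTm > 0.45 K or < −1.5 K. Hits retested at 5, 10, 20 µM (n = 4) and counterscreened on bovine carbonic anhydrase and ABL1 SH2 domain.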

Compound | TSA(without NAD+) / Primary screening (TSA) / delta Tm (K)
Cc1ccc(C(=O)OCc2ccc(C(=O)Nc3ccccc3)cc2)cc1 | 0.08
CCS(=O)(=O)NCC(=O)O | -0.07
CC(C)C(=O)NCCc1ccc(Cl)s1 | -0.05
O=C(NC1CC1)c1ccc2[nH]c3c(c2c1)CCCC3 | -0.12
Cc1cc(S(=O)(=O)Nc2ccc(C(=O)NCc3ccccc3-n3cccn3)cc2)ccc1F | -0.02
Cc1nnc(C(C)Oc2ccc3c(c2)CCCNC3=O)o1 (centres unmarked) | -0.15
NC(=O)C1CCN(c2ncnc3sc4c(c23)CCCC4)CC1 | 0.28
COc1ccccc1N1CCN(C(=O)c2ccccc2SCC(=O)NC23CC4CC(CC(C4)C2)C3)CC1 | -0.14
CC(=O)NS(=O)(=O)c1ccc(NS(=O)(=O)c2cccs2)cc1 | -0.13
CCn1nccc1CNc1cnc2c(c1)c(C)nn2C | -0.23
CNc1ncnc2c1cnn2-c1ccccc1 | -0.12
Cc1ccc(OC2CCN(Cc3cc(=O)n4c(-c5ccccc5)csc4n3)CC2)cc1C | -0.18
Cc1ccc(C(=O)C2=C(O)C(=O)N(CCCN3CCOCC3)C2c2ccc(OC(C)C)cc2)o1 (centres unmarked) | -0.02
Cc1ccc(C(=O)Nc2ccc(N3CCN(Cc4ccccc4)CC3)cc2)cc1NC(=O)c1ccco1 | 0.28
NC(=O)c1nn(CC(=O)Nc2ccc(N3CCN(Cc4ccccc4)CC3)cc2)c(=O)c2ccccc12 | 0.13
C/C=C/c1ccc(OCC(=O)Nc2cccc(S(=O)(=O)NCc3ccco3)c2)c(OC)c1 | -0.15
O=C(COc1ccccc1Cc1ccccc1)NNC(=O)C1=COCCO1 | -0.15
O=C(C1=C(O)C(=O)N(CCCN2CCOCC2)C1c1ccc(F)cc1)c1cc2ccccc2o1 (centres unmarked) | 0.09
CCn1cnnc1C1CCN(c2ncc([N+](=O)[O-])cc2C(N)=O)CC1 | -0.02
COc1ccc(C(=O)C2=C(O)C(=O)N(CCCN3CCOCC3)C2c2ccc(OC)cc2)cc1 (centres unmarked) | -0.13
O=C(NC1CCN(Cc2ccccc2)C1=O)c1cccnc1S (centres unmarked) | -0.05
CCc1ccc(CNC(C)c2c(C)nn(C)c2C)cc1 (centres unmarked) | -0.15
O=C(Nc1cccc(S(=O)(=O)N2CCOCC2)c1)c1nn(Cc2ccccc2)c(=O)c2ccccc12 | -0.08
CC1Cc2ccccc2N1C(=O)COC(=O)/C=C/c1cccc(F)c1 (centres unmarked) | -0.15

Compound | TSA(without NAD+) / Primary screening (TSA) / delta Tm (K)
Clc1ccc(-c2nc(CSc3nnc(NCc4ccco4)s3)cs2)cc1 | 0.17
CC(N)CCO (centres unmarked) | -0.23
CCNCc1ccc2c(c1)OCO2 | 0.08
Cn1c(-c2ccccc2)c(C=O)c2ccccc21 | -0.07
O=C1/C(=C\c2ccc(Br)cc2)COc2ccccc21 | 0.12
NC(=O)C1CCN(c2nc(CSc3ccccc3)nc3sc4c(c23)CCCC4)CC1 | 1.78
NC(=O)C1CCN(Cc2nc3ccc(Cl)cc3c(=O)[nH]2)CC1 | -0.33
CCCOc1cccc(C2C(C(=O)c3ccco3)=C(O)C(=O)N2CCCN2CCOCC2)c1 (centres unmarked) | 0.06
Cc1cc(CNc2ccccc2C(N)=O)no1 | 0.06
COc1ccc(C2C(C(=O)c3cc4ccccc4o3)=C(O)C(=O)N2CCCN2CCOCC2)cc1 (centres unmarked) | -0.13
Cc1ccc(NC(=O)CN2CCN(C(=O)c3ccccc3NC(=O)c3ccco3)CC2)cc1 | -0.04
O=C(CN1CCCCCCC1=O)NCCc1nc2ccccc2[nH]1 | -0.17
Cc1cccc(NC(=O)CN2CCN(c3ccccc3F)CC2)c1C | 0.12
CCCC(N)CN (centres unmarked) | -0.23
NS(=O)(=O)c1ccc2c(c1)CCN2C(=O)Nc1cccc2ccccc12 | -0.07
O=c1oc2ccc3ccccc3c2cc1-c1cnc(N/N=C/c2ccc(Br)cc2)s1 | 0.03
Cc1ccc(C(=O)OCC(=O)NC(C)C23CC4CC(CC(C4)C2)C3)cc1NC(=O)c1ccco1 (centres unmarked) | -0.07
Cc1cc(C(=O)OCc2cc3ccccc3[nH]c2=O)on1 | -0.21
CCn1c(S)nnc1C1CC1 | -0.13
NC(=O)c1ccc(NC(=O)c2cc(-c3cccnc3)nc3ccccc23)cc1 | -0.13
NC(=O)c1ccc(NC(=O)COC(=O)CNC(=O)C2CCCCC2)cc1 | 0.07
CN1CCN(C(=O)/C=C/c2cn(CCC#N)c3ccccc23)C(c2ccccc2)C1 (centres unmarked) | -0.11
Cc1cccc(Nc2nnc(SCC(=O)Nc3ccc(C(N)=O)cc3)s2)c1 | -0.04
Cc1ccc(C(=O)OCC(=O)NC(C)c2ccc3c(c2)CCCC3)cc1O (centres unmarked) | -0.05

17 structures already listed, sorted by SMILES length, ascending.
Compound | TSA(without NAD+) / Primary screening (TSA) / delta Tm (K)
CC(N)CCO (centres unmarked) | -0.23
CCn1c(S)nnc1C1CC1 | -0.13
CCNCc1ccc2c(c1)OCO2 | 0.08
CC(C)C(=O)NCCc1ccc(Cl)s1 | -0.05
Cn1c(-c2ccccc2)c(C=O)c2ccccc21 | -0.07
O=C1/C(=C\c2ccc(Br)cc2)COc2ccccc21 | 0.12
O=C(NC1CC1)c1ccc2[nH]c3c(c2c1)CCCC3 | -0.12
NC(=O)C1CCN(c2ncnc3sc4c(c23)CCCC4)CC1 | 0.28
Cc1ccc(C(=O)OCc2ccc(C(=O)Nc3ccccc3)cc2)cc1 | 0.08
NC(=O)c1ccc(NC(=O)COC(=O)CNC(=O)C2CCCCC2)cc1 | 0.07
Cc1cccc(Nc2nnc(SCC(=O)Nc3ccc(C(N)=O)cc3)s2)c1 | -0.04
CCn1cnnc1C1CCN(c2ncc([N+](=O)[O-])cc2C(N)=O)CC1 | -0.02
CN1CCN(C(=O)/C=C/c2cn(CCC#N)c3ccccc23)C(c2ccccc2)C1 (centres unmarked) | -0.11
O=C(C1=C(O)C(=O)N(CCCN2CCOCC2)C1c1ccc(F)cc1)c1cc2ccccc2o1 (centres unmarked) | 0.09
COc1ccc(C2C(C(=O)c3cc4ccccc4o3)=C(O)C(=O)N2CCCN2CCOCC2)cc1 (centres unmarked) | -0.13
Cc1ccc(C(=O)C2=C(O)C(=O)N(CCCN3CCOCC3)C2c2ccc(OC(C)C)cc2)o1 (centres unmarked) | -0.02
O=C(Nc1cccc(S(=O)(=O)N2CCOCC2)c1)c1nn(Cc2ccccc2)c(=O)c2ccccc12 | -0.08

Going on with the list.

Compound | TSA(without NAD+) / Primary screening (TSA) / delta Tm (K)
Cc1[nH]c2ccc(CNC(=O)N3CCC(C(N)=O)CC3)cc2c1C | 0.02
O=C(/C=C/c1ccc(N2CCCC2=O)cc1)NCCN1CCOCC1 | -0.11
CC(=O)Nc1ccc(NC(=O)c2cn(Cc3ccccc3)nc2-c2ccc(Cl)cc2)cc1 | 0.22
Oc1ccc(/C=N/c2ccccc2Cc2ccccc2)c(O)c1O | -0.52
N#CC1=C(N)N(c2ccccc2)C(=O)C1 | -0.17
COc1ccc(CCNC(=O)c2ccccc2SCC(=O)NC23CC4CC(CC(C4)C2)C3)cc1 | 0.02
O=C1/C(=C/c2ccc(F)cc2)Oc2cc(O)ccc21 | 0.05
Cc1noc(C)c1COc1cccc(C(=O)Nc2ccc(N3CCN(Cc4ccccc4)CC3)cc2)c1 | -0.02
CN(C)c1ccc(S(N)(=O)=O)cc1N | -0.01
CCN(CC)S(=O)(=O)c1cccc(C(=O)N[C@H](C(=O)OCC(=O)NC(C)C23CC4CC(CC(C4)C2)C3)C(C)C)c1 (some centres unmarked) | -0.08
O=C1/C(=C/c2cccc3cccnc23)COc2ccc(Br)cc21 | 0.02
C=CCSCCN | -0.08
CC(C)(C)OC(=O)N1CCN(C(=O)CNc2ccccc2C(N)=O)CC1 | 0.29
O=[N+]([O-])c1ccc(-c2nnc(CSc3nnc(NCc4ccccc4)s3)o2)cc1 | -0.08
Cc1ccc(-c2nn(-c3ccccc3)cc2C(=O)Nc2cccc(S(=O)(=O)N3CCOCC3)c2)cc1 | 0.07
CCCOc1ccc(NC=C2C(=O)NC(=S)NC2=O)cc1OCCC | -0.12
Cc1cccc2c(CC(=O)O)c(-c3ccccc3)[nH]c12 | -0.02
O=C(Cc1cccc2ccccc12)NC(c1ccccc1)c1ccccc1 | -0.04
Cn1ncc2c(=O)n(CC(=O)Nc3cc(C(N)=O)ccc3N3CCCC3)cnc21 | 0.03
COCCC(C)N (centres unmarked) | -0.15
O=c1[nH]cnc2c(Cl)cc(Cl)cc12 | -0.12
Cc1ccc(-c2nc(C)sc2CC(=O)Nc2ccc(C(N)=O)cc2)cc1 | -0.12
COc1cccc(C2(C)NC(=O)N(CC(=O)Nc3ccc(C(N)=O)cc3)C2=O)c1 (centres unmarked) | 0.22
O=C(NNC(=O)c1cnccn1)c1ccc(OCc2ccccc2)cc1 | 0.07

Compound | TSA(without NAD+) / Primary screening (TSA) / delta Tm (K)
Cc1ccc(Cn2c(=O)c3ccccc3n3c(SCC4CCCO4)nnc23)cc1 (centres unmarked) | -0.21
CC(C)C(=O)NCCNC(=O)Nc1cc(C(N)=O)ccc1F | -0.24
Cc1cccn2c(=O)c3cc(C(=O)N4CCc5ccccc54)sc3nc12 | 0.03
Cn1cc(C(=O)OCc2ccc(C(=O)N3CCCC3)cc2)c2ccccc21 | -0.34
CC(C)CNc1nnc(S)s1 | 0.06
COc1ccc(N(C)S(=O)(=O)c2cccc(C(=O)Nc3sc4c(c3C(N)=O)CCC(C)C4)c2)cc1 (centres unmarked) | 0.08
CN(CCC(=O)N1CCc2ccccc21)Cc1ccc2ccccc2c1 | 0.08
Cc1ccc(-c2cc(-c3ccccc3)c3cc([N+](=O)[O-])ccc3n2)cc1 | 0.03
CN(C)c1ccc(NC(=O)c2cccc(S(=O)(=O)N(C)c3cccc(Cl)c3)c2)cc1 | 0.27
CS(=O)(=O)NCC(=O)O | -0.04
N#Cc1ccc(NC(=O)CSc2nnc(NCc3ccco3)s2)cc1 | 0.09
O=c1[nH]c(=O)c2[nH]c(=O)[nH]c2[nH]1 | 0.02
O=C(c1cn(Cc2ccccc2)nc1-c1cccs1)N1CCCC1 | -0.01
COc1ccc(C(=O)NC2CCCCCC2C(N)=O)c(F)c1 (centres unmarked) | 0.15
CC(N)CC(=O)O (centres unmarked) | 0.02
CC(C)(C)c1ccccc1NC(=O)C1CC(=O)N(Cc2ccccc2)C1 (centres unmarked) | -0.18
Cc1ccc(C)c(C(=O)Nc2cccc(S(=O)(=O)N3CCCCCC3)c2)c1 | -0.18
CS(=O)(=O)NCCSc1nnc(NCC2CCCO2)s1 (centres unmarked) | -0.03
Cc1ccc(-c2sc(-c3ccccc3)nc2CC(=O)NC2(C)CCS(=O)(=O)C2)cc1 (centres unmarked) | -0.13
CC(=O)Nc1ccc(C(=O)COC(=O)c2ccccc2-c2ncc(-c3ccccc3)o2)cc1 | -0.12
COC(=O)c1cc(OC)ccc1NC(=O)Cn1c(-c2ccc(F)cc2)c(C)sc1=O | -0.18
CC1CCN(CCNC(=O)NC(C)c2ccc3c(c2)CC(=O)N3)CC1 (centres unmarked) | -0.02
Cc1[nH]nc(C(N)=O)c1NC(=O)Cn1ccc2ccc(Cl)cc21 | -0.18
